This data set can be described thus: general procedure: Fmoc solid-phase peptide synthesis; PS Rink-Amide MBHA resin; HATU/DIPEA; DIC/Oxyme. The conditions noted are these: whole synthesis, scale 0.250 mmol, TFA, Cl or AcOH salts (Table 2).

With Reagent A Int-A, the crude mass stood at 399 mg.

Reagent B Int-A: the crude mass is 300 mg.

For the origin of these results see patent publication US12209145B2 (Merck Sharp & Dohme LLC, priority 2018, dated 2025).
